# The list shows a part of the results. The main result of the screen is listed elsewhere. These columns were measured beside it and carry no call. The list favours compounds with an active or inconclusive main result. Potencies come from curve fits of mixed quality, noted in brackets.
# Assay: qHTS Assay for Lipid Storage Modulators in Drosophila S3 Cells;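 for cell number change: cells counted by Cell Tracker Red CMTPX staining in the red channel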
# Conditions: BODIPY lipid droplet fluorescence, 18-24 h; for cell number change: measured here: cell count max response, cells fed with added oleic acid
# Outline: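 Drosophila S3 cells loaded with oleic acid (400 uM, as added) and compounds at several concentrations; lipid droplets imaged by 488-nm laser-scanning cytometry, 500–530 nm intensity and object ratio to cell channel. Percent activity normalized to 20 uM Triacsin C.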
# [1] = measured here: lipid fluorescence (Fed channel) AC50, cells fed with added oleic acid
# [2] = measured here: cell number channel AC50, cells fed with added oleic acid
Compound,cell number change [%],AC50 [1],AC50 [2]
COc1ccc(OC)c(C2CC(=O)N3CN(c4ccc(C)c(Cl)c4)CSC3=C2C#N)c1 (centres undefined),-5.77,"0.103 µM [rising, full curve, poor fit]",–
OC1CCCN(C(=S)NCc2ccccc2)C1 (centres undefined),11.4,–,–
CCc1ccc2oc(C(=O)Nc3nonc3CC)c(C)c2c1,26.6,–,–
Cn1cnc([N+](=O)[O-])c1Oc1ccccc1,-22.2,"29.1 µM [falling, single point]",–
Cc1c(C)c2ccc(OCC(=O)NC(Cc3ccc(Cl)cc3)C(=O)O)cc2oc1=O (centres undefined),2.06,–,–
O=C(Nc1ccccc1)N1CCN(Cc2ccc3c(c2)OCO3)CC1,-27.6,–,"3.66 µM [falling, full curve, poor fit]"
CCNc1nc(SCC(=O)OC)nc(N2CCOCC2)n1,0.873,–,–
C=CCn1c(COc2ccccc2F)nnc1SCC(=O)NC(=O)NCc1ccco1,-22.2,–,–
CN(Cc1ccccc1)S(=O)(=O)c1cc2c3c(c1)CCN3C(=O)CC2,70.4,–,"20.6 µM [rising, partial curve]"
Cc1ccc(N(CCCCN2C(=O)c3ccccc3C2=O)C(=O)c2cccs2)cc1,-49.3,"29.1 µM [falling, single point]","29.1 µM [falling, single point]"
CC(=O)Nc1ccc(S(=O)(=O)NCCC(=O)NCC2COc3ccccc3O2)cc1 (centres undefined),18.6,–,"0.411 µM [rising, full curve, poor fit]"
COc1ccccc1N1CCN(S(=O)(=O)c2ccc(NC(C)=O)cc2)CC1,-4.67,"6.51 µM [rising, single point]",–
COc1ccc(-c2ccc(SCC(=O)NC3CCCCC3)nn2)cc1,9.83,"6.51 µM [rising, partial curve]",–
C[C@H]1COc2c(C3(N)CC3)c(F)cc3c(=O)c(C(=O)O)cn1c23,-37.8,"0.146 µM [falling, full curve]","4.11 µM [falling, full curve]"
COC(=O)c1ccccc1NC(=O)CSc1nnnn1CC(=O)O,-2.63,–,"0.231 µM [rising, partial curve]"
CCOC(=O)c1nn(-c2ccc(Cl)cc2)c2nc(Nc3ccccc3)cc(=O)n12,–,"0.58 µM [rising, single point]",–
CC(=O)N1CCCN(Cc2cn(-c3cccc(C)c3)nc2-c2cccc(F)c2)CC1,19.2,–,–
COc1cc(/C=N/NC(=O)CN(Cc2ccccc2)S(=O)(=O)c2ccc3c(c2)OCCO3)ccc1O,-2.38,"1.16 µM [rising, partial curve]","3.26 µM [rising, single point]"
O=C(Cc1csc(NC(=O)Nc2cccc(Cl)c2)n1)NCc1cccnc1,–,–,"0.13 µM [falling, partial curve, poor fit]"
COc1ccc(CC(C(=O)Nc2cccc(F)c2)c2nn[nH]n2)c(OC)c1 (centres undefined),-35.2,"29.1 µM [falling, single point]","20.6 µM [falling, partial curve, poor fit]"
CCCCNC(=O)Cn1c(=O)oc2cc(S(=O)(=O)N3CC(C)CC(C)C3)ccc21 (centres undefined),8.26,–,–

Compound,cell number change [%],AC50 [1],AC50 [2]
O=C(NC(C(=O)N/N=C/c1cccc2ccccc12)c1n[nH]c(=O)c2ccccc12)c1ccccc1 (centres undefined),-33.5,"32.6 µM [falling, partial curve, poor fit]",–
CCN1C(=O)C(CC(=O)Nc2ccc(F)cc2)N(Cc2ccco2)C1=S (centres undefined),-49.5,–,–
C=CCOc1ccc(C(=O)Nc2ccccc2C(=O)NCc2cccnc2)cc1,–,"2.24 µM [falling, partial curve]",–
Cc1ccc(S(=O)(=O)N2CCOC2CNC(=O)C(=O)NCCCc2ccccc2)cc1 (centres undefined),-19.6,"16.4 µM [falling, single point]",–
Cn1c(=O)c2c(nc(NCc3ccc4c(c3)OCO4)n2Cc2ccccc2)n(C)c1=O,-93.9,–,–
COc1cccc(NC(=O)CN(C)C(=O)c2cc(S(=O)(=O)NCc3ccccc3)ccc2C)c1,-22.1,"6.51 µM [rising, single point]",–
COC(=O)[C@H](CCSC)NC(=O)NCc1ccccn1,-31.4,–,"0.146 µM [falling, full curve, poor fit]"
CC(=O)c1ccc(NC(=S)N2CCN(S(=O)(=O)c3ccc(F)cc3)CC2)cc1,3.45,–,–
COc1ccccc1-c1nc(S(=O)(=O)c2ccccc2)c(N2CCCCC2)o1,–,"2.51 µM [falling, partial curve]",–
CCCCCOC(=O)Cn1c(SCC(=O)Nc2ccccc2)nc2c1c(=O)[nH]c(=O)n2C,53.3,"29.1 µM [rising, single point]","11.6 µM [rising, partial curve]"
Cc1cc(C)nc(-n2ncc3c2CC(c2ccc(C(C)C)cc2)CC3=O)n1 (centres undefined),8.97,"2.59 µM [rising, single point]",–
CO/N=C/c1ccc(N2CCN(C(=O)c3ccc(F)cc3)CC2)c([N+](=O)[O-])c1,-114,"29.1 µM [falling, single point]","29.1 µM [falling, single point]"
Cc1cccc2sc(NC(=O)C3CCCN(S(=O)(=O)c4cccc5nonc45)C3)nc12 (centres undefined),-29.8,"13 µM [falling, partial curve]",–
COC(=O)CN1C(=O)COc2ccc(S(=O)(=O)NCc3ccccc3)cc21,7.74,–,–
Cn1c(NCc2ccc(Cl)cc2)nc2ccccc21,–,"0.103 µM [rising, partial curve, poor fit]",–
CCOc1ccccc1NS(=O)(=O)c1ccc(-c2cnc(C3CC3)o2)cc1,-36.7,–,"20.6 µM [falling, single point]"
CCCn1cc(S(=O)(=O)c2ccc(OC)cc2)c(=O)c2cc(OC)ccc21,-4.95,–,–
O=C(NNC(=S)Nc1ccc(F)cc1F)c1ccco1,-14.4,–,–
CC(=O)Nc1ccc(Oc2ccc(S(=O)(=O)N3CCCC3)cn2)cc1,2.73,–,"0.231 µM [falling, partial curve, poor fit]"
CCCn1c(=N)n(CC(=O)c2ccc(Cl)cc2)c2ccccc21,1.05,–,–
Cc1c(OCc2ccccc2)c(=O)ccn1Cc1ccc(Cl)cc1,-64.9,"29.1 µM [falling, single point]","18.4 µM [falling, single point]"

Compound,cell number change [%],AC50 [1],AC50 [2]
CCOc1cccc(N(C(=O)CCC(=O)Nc2cc(C)on2)C(C(=O)NC(C)(C)C)c2ccc(OC)cc2)c1 (centres undefined),-1.28,"5.17 µM [rising, single point]",–
O=C(CSc1nc2ccc(Cl)cc2[nH]1)NCc1ccco1,0.0701,–,–
COCCNC(=O)Cn1cc(C(=O)c2ccco2)c2ccccc21,18.7,–,"0.461 µM [falling, single point]"
Cc1[nH]n(-c2ccccc2)c(=O)c1N=Nc1cccc(Cl)c1,-5.96,"3.26 µM [falling, single point]",–
C[C@H](NC(=O)c1nc[nH]c1C(=O)N[C@@H](CCCCNC(=O)OC(C)(C)C)C(=O)OC(C)(C)C)C(=O)OCc1ccccc1,44.6,"25.9 µM [falling, single point]",–
Cc1ccc(-n2ncc3c2CCCC3NC(=O)c2csnn2)cc1C (centres undefined),-23.1,"0.0058 µM [falling, full curve]","0.0103 µM [falling, full curve, poor fit]"
CCOc1nc(Nc2ccc([N+](=O)[O-])cc2)nc(NC(C)(C)C)n1,14.1,–,"3.66 µM [rising, partial curve]"
CCCCCC(=O)NC(=S)Nc1ccc(Cl)cn1,6.32,"0.00461 µM [falling, full curve]",–
Cc1nc(N)nc(-c2ccccc2O)n1,46.4,–,"2.59 µM [rising, partial curve]"
COc1cccc(NC(=O)CN2CCc3ccccc3C2)c1,-4.23,"8.2 µM [rising, partial curve]",–
COc1cccc(CSc2nc3sc(C)c(C)c3c(=O)n2Cc2ccco2)c1,-1.35,"29.1 µM [rising, single point]",–
Cc1nc(N)ncc1C(=O)Nc1ccccc1,6.51,"2.59 µM [falling, partial curve]",–
CCOc1cc(S(=O)(=O)NCc2ccc3c(c2)OCO3)c(C)cc1C,-7.08,–,–
COC(=O)c1ccc(C(=O)OC)c(NC(=O)COC(=O)c2ccccc2OC)c1,-48.2,–,"29.1 µM [falling, single point]"
COC(=O)CSc1nnc(CNS(=O)(=O)c2ccc(Cl)cc2)n1C,–,"23.1 µM [falling, partial curve]",–
COC(=O)c1c(C)oc2ccc(N(C(=O)c3ccncc3)S(=O)(=O)c3ccc(C)cc3)cc12,-32.6,"1.64 µM [rising, partial curve]",–
Cc1cc(NC(=O)COc2ccccc2C)ccc1NC(=O)c1cccs1,-38.9,–,"5.8 µM [falling, partial curve, poor fit]"
COC(=O)CSc1nsc(SCC(=O)OC)c1C#N,-89.3,–,"29.1 µM [falling, single point]"
COc1ccc(-n2c(O)c(C=NCC(c3ccco3)N3CCCC3)c3ccccc3c2=O)cc1OC (centres undefined),20.5,"0.731 µM [falling, single point]","2.06 µM [falling, partial curve]"
Cc1ccccc1C(=O)N1CCN(c2ccc(NC(=O)c3cccs3)cc2)CC1,-48.5,–,"29.1 µM [falling, single point]"
O=C(O)c1cccnc1Sc1ccccc1Cl,-47.4,"29.1 µM [falling, partial curve, poor fit]","32.6 µM [falling, single point]"

# Compounds listed so far that contain a cyano group:
Compound,cell number change [%],AC50 [1],AC50 [2]
COc1ccc(OC)c(C2CC(=O)N3CN(c4ccc(C)c(Cl)c4)CSC3=C2C#N)c1 (centres undefined),-5.77,"0.103 µM [rising, full curve, poor fit]",–
COC(=O)CSc1nsc(SCC(=O)OC)c1C#N,-89.3,–,"29.1 µM [falling, single point]"

# Reference: PubChem BioAssay AID2685 (National Center for Advancing Translational Sciences (NCATS), 2010)
